The results in this text go back to PubChem BioAssay AID2685 (National Center for Advancing Translational Sciences (NCATS), 2010).

This is one part of the list. Further columns of the screen follow, without active or inactive calls. Compounds called inactive in the main read-out are mostly missing here. Words in brackets tell the shape of the fitted curve; partial curves, single points and poor fits give uncertain potencies.

This assay in a line: qHTS Assay for Lipid Storage Modulators in Drosophila S3 Cells.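 For cell number change: cells counted by Cell Tracker Red CMTPX staining in the red channel.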 Particulars: BODIPY lipid droplet fluorescence, 18-24 h; for cell number change: measured here: cell count max response, cells fed with added oleic acid. The method, boiled down:
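Drosophila S3 cells got compounds at several concentrations plus oleic acid (400 uM solution). Laser-scanning cytometry with 488 nm excitation read lipid droplets at 500-530 nm and cells at 575-640 nm. Percent activity was relative to 20 uM Triacsin C.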

Setting [1] is: measured here: lipid fluorescence (Fed channel) AC50, cells fed with added oleic acid.
The mark [2] stands for this setting: measured here: cell number channel AC50, cells fed with added oleic acid.

Take `CC(=O)c1cc(F)ccc1OCC(=O)N1CCN(c2ccc(F)cc2)CC1`: the cell number change was determined as 25.8%.

As for `CC(=O)Oc1ccccc1/C=C/c1ccc2ccccc2[n+]1C`, the cell number change was -34.6%. Under setting [1], the AC50 was 1.64 µM [falling, full curve].

Take `C=CCN1C(=O)C(C)(C)Nc2ccccc21`: the cell number change was 5.82%. The AC50 under setting [1] is 0.103 µM [falling, full curve, poor fit].

With `CC(C)Oc1ccc(C(=O)NC(=S)Nc2ccc(CN3CCOCC3)cc2)cc1`, the cell number change amounted to 4.23%. For the same compound, the AC50 under setting [1] is 2.59 µM [rising, single point].

For `Cc1ccc(C)c(NC2=NCC(=O)N2c2ccc3c(c2)OCCO3)c1`, the cell number change was 6.99%. In addition, under setting [1], the AC50 was 1.64 µM [rising, partial curve, poor fit].

For `FC(F)(F)Oc1ccc(NC(=S)Nc2ccc(OC(F)(F)F)cc2)cc1`, the cell number change was -49%. The AC50 under setting [2] is 20.6 µM [falling, single point].

As to `Cc1ccccc1NS(=O)(=O)c1ccc2c(c1)NC(=O)CO2`, the cell number change was -15.7%. Moreover, the AC50 under setting [1] is 5.8 µM [falling, partial curve].

With `COC(=O)c1cc(-c2ccc(OC)cc2F)nc2nc(SC)[nH]c(=O)c12`, the cell number change was -8.57%.

As for `O=C(COc1ccc(Cl)cc1)NNC(=O)c1ccncc1`, the cell number change is -2.6%. In addition, the AC50 under setting [1] is 29.1 µM [rising, single point].

Consider `O=c1[nH]c(=O)n(C2CCCCCC2)c(O)c1C=NCc1ccc(F)cc1`, for which the cell number change is -39.1%. For the same compound, under setting [2], the AC50 was 25.9 µM [falling, single point].

For `O=C(CN1CCCCC1)N=Nc1c(O)[nH]c2ccccc12`, the cell number change was -13%. Further, the AC50 under setting [1] is 0.058 µM [falling, full curve, poor fit].

For `COc1ccc(OC)c(-n2c(-c3cc(-c4ccccc4)n[nH]3)n[nH]c2=S)c1`, the cell number change is -50%. For the same compound, the AC50 under setting [2] was 0.164 µM [falling, full curve]. For the same compound, the AC50 under setting [1] was 1.46 µM [rising, full curve].

For the compound `c1ccc(Nc2c3c(nc4ncnn24)CCC3)cc1`, the cell number change is 0.646%. Besides, under setting [1], the AC50 was 0.731 µM [falling, full curve, poor fit].

As to `COc1ccc(CN2C(=O)CSCC2=O)cc1OC`, the cell number change turned out to be 31.1%. Also, under setting [2], the AC50 is 32.6 µM [rising, single point]. The AC50 under setting [1] is 29.1 µM [rising, partial curve, poor fit].

As for `CS(=O)(=O)N(Cc1ccccc1)c1ccc(C(=O)Nc2ccc(C(N)=O)cc2)cc1`, the cell number change is -34.1%. For the same compound, the half-maximal activity concentration (AC50) under setting [2] was 1.3 µM [falling, full curve]. Further, the AC50 under setting [1] is 0.58 µM [falling, single point].

As to `Cn1nc(C(F)(F)F)c(-c2ccc(F)cc2)c1NC(=O)Nc1ccc(F)cc1`, the cell number change is -35.2%. For the same compound, under setting [2], the AC50 was 29.1 µM [falling, single point]. The AC50 under setting [1] was 14.6 µM [falling, single point].

Take `Cc1cccc(NC(=O)COC(=O)c2cccs2)c1C`: the cell number change came out at 11.7%.

For the compound `CNc1cccc2c1C(=O)c1ccccc1C2=O`, the AC50 under setting [1] is 13 µM [falling, partial curve].

On to `CCOC(=O)N1CCC(N2C(=O)c3ccccc3C2Nc2ccc(C)cc2)CC1` (configuration not stated), for which the cell number change was 49.1%. The AC50 under setting [2] is 4.61 µM [rising, partial curve, poor fit].

On to `O=S(=O)(c1ccc(-c2nnc(SCc3nnc(-c4ccccc4)o3)o2)cc1)N1CCCC1`, for which the cell number change is 2.6%. In addition, under setting [1], the AC50 is 18.4 µM [falling, single point].

On to `CN(Cc1ccccc1)C(=O)Cn1c(=O)oc2cc(S(=O)(=O)N3CCCC3)ccc21`, for which the cell number change was found to be 44.5%. The AC50 under setting [1] was 2.31 µM [falling, partial curve].

On to `Cc1ccc2nc(SCC(=O)OCc3ccccc3)nc(=O)n2c1`, for which, under setting [1], the AC50 was 6.51 µM [falling, single point].

Regarding `Cc1cc(C(=O)CN2C(=O)NC3(CCCCC3C)C2=O)c(C)n1Cc1cccs1` (configuration not stated), the cell number change worked out at 32.6%. In addition, the AC50 under setting [2] is 9.2 µM [rising, partial curve]. Under setting [1], the concentration at half-maximal activity (AC50) is 1.3 µM [rising, full curve, poor fit].

As to `CC1CN(c2nnc(NC(=O)c3ccccc3)s2)CC(C)O1` (configuration not stated), the cell number change is 33.1%. Further, under setting [2], the AC50 was 25.9 µM [rising, single point].

On to `COc1ccc(OC)c(CC(NC(C)=O)C(=O)NC2CCN(c3nc(OC)nc(OC)n3)CC2)c1` (configuration not stated), for which the cell number change came to 4.92%. For the same compound, the AC50 under setting [1] was 5.8 µM [falling, single point].

With `O=C(COC(=O)c1ccc[nH]c1=O)NC1CCCC1`, the cell number change was -1.03%. Further, the AC50 under setting [1] was 0.82 µM [falling, full curve].

Regarding `O=C(Nc1nnc(CCOCCOCCc2nnc(NC(=O)c3ccco3)s2)s1)c1ccco1`, the cell number change came out at 53.1%. Moreover, under setting [2], the AC50 is 10.3 µM [rising, partial curve, poor fit]. Moreover, the AC50 under setting [1] was 0.517 µM [rising, full curve].

With `CCCn1c(=O)c2ccccc2n2c(SCC(=O)Nc3cc(C)on3)nnc12`, the cell number change amounted to 16.2%. The concentration at half-maximal activity (AC50) under setting [1] is 0.146 µM [rising, full curve, poor fit].

In the case of `CCN(c1ccccc1)S(=O)(=O)c1cc(CN2C(=O)c3cccnc3C2=O)ccc1OC`, the cell number change amounted to 3.82%.

Consider `CCOC(=O)COc1cc(-n2c(=S)[nH]c3cc(OC)c(OC)cc3c2=O)c(Cl)cc1Cl`, for which the cell number change was -63.4%. In addition, under setting [2], the AC50 was 29.1 µM [falling, single point]. In addition, under setting [1], the AC50 was 23.1 µM [falling, single point].

On to `Cc1ccc(N2CC(=O)Nc3c(sc4nc(C)cc(C)c34)C2=O)cc1`, for which the cell number change was determined as 20.5%. Besides, under setting [1], the AC50 is 3.26 µM [rising, partial curve].

For the compound `O=C(NC1CCCC1)C1CCC(CNS(=O)(=O)c2ccccc2)CC1` (configuration not stated), the cell number change was found to be 20%. Moreover, the AC50 under setting [1] is 0.651 µM [rising, single point].

Regarding `O=C(N/N=C/c1ccc(N2CCCCC2)o1)c1ccccc1[N+](=O)[O-]`, the cell number change is -51.3%. The AC50 under setting [2] is 18.4 µM [falling, single point]. Besides, the AC50 under setting [1] was 32.6 µM [falling, partial curve].

`COc1ccc2c(-c3cc4ccc(OCc5ccc(F)cc5)cc4oc3=O)cc(=O)oc2c1`: the cell number change was -66.7%. In addition, the AC50 under setting [2] is 1.84 µM [falling, partial curve].

For the compound `CCCCn1c(N)c(N(CCC(C)C)C(=O)COC(=O)c2ccc3ccccc3c2)c(=O)[nH]c1=O`, under setting [2], the AC50 is 4.11 µM [rising, single point].

Turning to `c1coc(-c2ccnc3ncnn23)c1`, the cell number change was -41.5%. Besides, under setting [2], the AC50 was 29.1 µM [falling, single point]. Moreover, under setting [1], the AC50 was 18.4 µM [falling, single point].

Turning to `COc1ccc(NC(=O)C2CCCN2C(=O)NC2CCCCC2)cc1` (configuration not stated), the cell number change stood at 9.83%. Also, the concentration at half-maximal activity (AC50) under setting [2] was 0.731 µM [rising, single point]. Besides, the AC50 under setting [1] is 29.1 µM [rising, single point].
